The entries are a selection whose mix differs from that of the whole data set.
Compound: COC(=O)C#Cc1ccccc1 [methyl 3-phenylpropiolate]
Experiment: log2 ratio of iodoacetamide-alkyne labeling of the cysteine site, DMSO over compound (competition); higher = stronger covalent engagement of the cysteine by the compound, active = 1 or more
Settings: 500 µM; treatment time 1 h; system: HEK293T cell lysate
How it was run: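 Electrophile (500 µM) or vehicle was added to HEK293T lysate (2 mg/mL) for 1 h at ambient temperature before iodoacetamide alkyne labelling (1 h) and click coupling to sCIP-TMT reagents. After pooling, overnight trypsin digestion at 37 °C, streptavidin enrichment and acid elution, peptides were measured by Orbitrap Eclipse LC-MS/MS with FAIMS and quantified in FragPipe. Each cysteine's log2 competition ratio compares mean control-channel with mean compound-channel reporter intensity, control over compound. Data came from duplicate channels across three replicates, excluding cysteines quantified in only one replicate.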

By UniProt entry, the sequences of proteins in these tests, tags left out. Where a name states a change or a piece, a line headed by the entry shows the natural chain unless it says otherwise.
UniProt P31040: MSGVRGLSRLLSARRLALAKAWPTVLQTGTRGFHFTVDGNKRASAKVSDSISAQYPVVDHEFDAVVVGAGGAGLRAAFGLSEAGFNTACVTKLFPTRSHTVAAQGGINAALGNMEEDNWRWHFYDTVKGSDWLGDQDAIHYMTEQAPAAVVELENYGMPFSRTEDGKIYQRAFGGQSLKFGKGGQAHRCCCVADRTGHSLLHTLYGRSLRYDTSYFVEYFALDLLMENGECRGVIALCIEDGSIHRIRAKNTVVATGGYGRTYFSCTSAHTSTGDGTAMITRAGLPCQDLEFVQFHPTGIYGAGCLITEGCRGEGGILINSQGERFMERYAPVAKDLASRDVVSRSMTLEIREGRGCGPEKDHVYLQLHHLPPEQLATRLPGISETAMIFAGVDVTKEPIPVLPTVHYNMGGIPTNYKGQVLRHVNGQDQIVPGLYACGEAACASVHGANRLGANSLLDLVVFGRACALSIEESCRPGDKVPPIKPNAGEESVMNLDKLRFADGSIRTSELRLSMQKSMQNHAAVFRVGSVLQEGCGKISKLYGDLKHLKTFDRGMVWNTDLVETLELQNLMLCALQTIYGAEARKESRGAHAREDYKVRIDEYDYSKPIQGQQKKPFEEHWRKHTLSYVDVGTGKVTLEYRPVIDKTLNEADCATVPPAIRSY
UniProt P41567, whole entry, looked up: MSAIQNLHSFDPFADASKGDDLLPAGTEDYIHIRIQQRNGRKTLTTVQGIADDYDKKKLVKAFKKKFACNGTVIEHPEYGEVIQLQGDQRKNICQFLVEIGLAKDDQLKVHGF
UniProt P40925: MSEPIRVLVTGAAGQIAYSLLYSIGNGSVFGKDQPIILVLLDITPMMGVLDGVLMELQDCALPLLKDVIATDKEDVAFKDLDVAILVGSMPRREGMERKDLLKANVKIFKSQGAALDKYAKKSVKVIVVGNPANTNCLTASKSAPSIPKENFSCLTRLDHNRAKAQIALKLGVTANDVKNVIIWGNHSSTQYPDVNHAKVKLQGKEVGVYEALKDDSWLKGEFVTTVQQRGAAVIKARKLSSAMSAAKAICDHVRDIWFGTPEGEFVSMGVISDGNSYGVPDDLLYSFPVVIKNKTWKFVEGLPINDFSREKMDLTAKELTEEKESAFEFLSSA
UniProt P35221: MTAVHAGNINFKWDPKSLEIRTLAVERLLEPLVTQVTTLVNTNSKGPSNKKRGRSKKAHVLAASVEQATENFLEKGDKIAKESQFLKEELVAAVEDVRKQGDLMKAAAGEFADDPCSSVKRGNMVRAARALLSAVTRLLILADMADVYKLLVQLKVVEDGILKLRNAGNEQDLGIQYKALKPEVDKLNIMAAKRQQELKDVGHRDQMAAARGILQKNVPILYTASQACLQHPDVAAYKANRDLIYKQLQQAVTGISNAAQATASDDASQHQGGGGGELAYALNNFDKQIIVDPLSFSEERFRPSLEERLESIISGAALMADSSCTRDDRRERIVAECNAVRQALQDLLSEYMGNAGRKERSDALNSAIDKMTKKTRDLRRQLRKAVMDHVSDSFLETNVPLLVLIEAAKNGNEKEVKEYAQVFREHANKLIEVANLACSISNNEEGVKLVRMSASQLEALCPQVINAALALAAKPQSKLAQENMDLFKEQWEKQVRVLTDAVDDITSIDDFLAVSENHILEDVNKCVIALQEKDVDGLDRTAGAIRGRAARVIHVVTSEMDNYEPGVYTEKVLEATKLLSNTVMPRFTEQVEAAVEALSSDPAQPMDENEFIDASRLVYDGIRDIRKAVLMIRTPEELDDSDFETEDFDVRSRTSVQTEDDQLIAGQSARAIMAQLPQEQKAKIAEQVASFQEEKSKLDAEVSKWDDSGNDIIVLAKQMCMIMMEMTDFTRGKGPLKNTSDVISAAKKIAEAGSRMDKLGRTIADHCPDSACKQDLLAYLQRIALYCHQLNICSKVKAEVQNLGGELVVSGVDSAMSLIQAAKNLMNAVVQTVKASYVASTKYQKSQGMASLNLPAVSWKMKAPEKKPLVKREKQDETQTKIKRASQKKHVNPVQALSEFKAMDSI
UniProt P35611: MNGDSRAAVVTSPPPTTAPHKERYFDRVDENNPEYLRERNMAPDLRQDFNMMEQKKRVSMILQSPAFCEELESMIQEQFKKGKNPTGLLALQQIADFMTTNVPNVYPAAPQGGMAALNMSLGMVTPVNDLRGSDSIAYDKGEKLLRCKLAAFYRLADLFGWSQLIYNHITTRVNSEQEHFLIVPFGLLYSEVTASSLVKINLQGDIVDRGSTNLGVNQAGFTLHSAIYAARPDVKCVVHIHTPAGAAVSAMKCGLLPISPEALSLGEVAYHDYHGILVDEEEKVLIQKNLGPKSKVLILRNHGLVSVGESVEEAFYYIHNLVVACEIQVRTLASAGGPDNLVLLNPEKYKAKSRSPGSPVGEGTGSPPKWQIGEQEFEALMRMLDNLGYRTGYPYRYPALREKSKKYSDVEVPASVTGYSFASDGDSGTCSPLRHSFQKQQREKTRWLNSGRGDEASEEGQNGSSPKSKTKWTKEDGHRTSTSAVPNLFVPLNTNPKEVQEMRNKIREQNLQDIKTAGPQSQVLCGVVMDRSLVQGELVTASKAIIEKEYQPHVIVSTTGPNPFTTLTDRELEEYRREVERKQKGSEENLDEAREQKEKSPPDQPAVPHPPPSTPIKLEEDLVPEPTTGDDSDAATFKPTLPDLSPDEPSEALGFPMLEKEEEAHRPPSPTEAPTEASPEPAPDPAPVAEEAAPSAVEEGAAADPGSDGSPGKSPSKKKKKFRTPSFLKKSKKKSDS
UniProt P42166: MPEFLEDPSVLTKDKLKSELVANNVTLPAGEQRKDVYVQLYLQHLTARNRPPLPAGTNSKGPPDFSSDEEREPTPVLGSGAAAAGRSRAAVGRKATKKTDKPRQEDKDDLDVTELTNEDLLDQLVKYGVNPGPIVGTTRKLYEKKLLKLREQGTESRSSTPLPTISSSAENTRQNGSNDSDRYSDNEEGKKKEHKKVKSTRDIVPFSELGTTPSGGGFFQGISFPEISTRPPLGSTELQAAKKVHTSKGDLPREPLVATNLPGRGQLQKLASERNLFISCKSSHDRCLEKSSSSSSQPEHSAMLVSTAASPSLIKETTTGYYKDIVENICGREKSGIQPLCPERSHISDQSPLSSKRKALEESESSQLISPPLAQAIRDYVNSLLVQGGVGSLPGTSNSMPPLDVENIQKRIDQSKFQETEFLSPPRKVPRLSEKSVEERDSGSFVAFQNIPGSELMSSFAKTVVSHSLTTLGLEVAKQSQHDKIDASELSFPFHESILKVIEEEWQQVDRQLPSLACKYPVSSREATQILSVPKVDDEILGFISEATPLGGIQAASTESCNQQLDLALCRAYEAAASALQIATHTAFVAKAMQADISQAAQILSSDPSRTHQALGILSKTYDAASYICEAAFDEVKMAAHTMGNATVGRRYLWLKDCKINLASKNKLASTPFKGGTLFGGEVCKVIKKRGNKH
UniProt P33991: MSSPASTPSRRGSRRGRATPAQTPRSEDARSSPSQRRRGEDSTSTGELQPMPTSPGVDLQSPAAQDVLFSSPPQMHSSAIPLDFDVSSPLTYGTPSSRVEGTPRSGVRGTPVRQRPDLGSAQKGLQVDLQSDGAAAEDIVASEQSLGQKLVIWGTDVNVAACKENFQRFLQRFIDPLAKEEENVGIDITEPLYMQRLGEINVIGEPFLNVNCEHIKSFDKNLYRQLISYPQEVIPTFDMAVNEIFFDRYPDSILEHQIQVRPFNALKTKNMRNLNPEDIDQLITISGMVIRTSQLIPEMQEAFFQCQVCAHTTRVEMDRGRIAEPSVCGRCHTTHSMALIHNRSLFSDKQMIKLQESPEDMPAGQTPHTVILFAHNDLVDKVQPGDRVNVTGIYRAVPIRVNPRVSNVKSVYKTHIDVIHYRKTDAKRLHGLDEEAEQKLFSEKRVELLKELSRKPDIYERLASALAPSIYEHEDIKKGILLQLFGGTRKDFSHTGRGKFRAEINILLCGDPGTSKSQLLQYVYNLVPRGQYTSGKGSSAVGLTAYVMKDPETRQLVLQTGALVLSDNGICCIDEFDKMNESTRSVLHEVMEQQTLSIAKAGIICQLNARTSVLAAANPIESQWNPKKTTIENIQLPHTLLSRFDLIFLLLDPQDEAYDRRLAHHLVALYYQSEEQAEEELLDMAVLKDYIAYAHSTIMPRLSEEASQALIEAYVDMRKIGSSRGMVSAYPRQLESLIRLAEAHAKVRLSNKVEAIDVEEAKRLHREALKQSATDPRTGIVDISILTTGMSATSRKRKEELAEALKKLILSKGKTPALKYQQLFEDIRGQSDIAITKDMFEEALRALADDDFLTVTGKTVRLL
UniProt P35250, whole entry, looked up: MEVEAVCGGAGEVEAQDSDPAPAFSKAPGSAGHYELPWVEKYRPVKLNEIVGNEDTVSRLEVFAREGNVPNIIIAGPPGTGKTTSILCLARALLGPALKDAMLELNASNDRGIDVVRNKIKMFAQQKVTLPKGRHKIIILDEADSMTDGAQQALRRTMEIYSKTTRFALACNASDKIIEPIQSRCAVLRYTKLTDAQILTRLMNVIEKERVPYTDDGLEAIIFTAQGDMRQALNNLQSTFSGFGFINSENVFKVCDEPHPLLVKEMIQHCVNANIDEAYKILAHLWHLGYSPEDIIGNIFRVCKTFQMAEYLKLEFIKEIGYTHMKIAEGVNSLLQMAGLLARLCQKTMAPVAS
UniProt P30153, whole entry, looked up: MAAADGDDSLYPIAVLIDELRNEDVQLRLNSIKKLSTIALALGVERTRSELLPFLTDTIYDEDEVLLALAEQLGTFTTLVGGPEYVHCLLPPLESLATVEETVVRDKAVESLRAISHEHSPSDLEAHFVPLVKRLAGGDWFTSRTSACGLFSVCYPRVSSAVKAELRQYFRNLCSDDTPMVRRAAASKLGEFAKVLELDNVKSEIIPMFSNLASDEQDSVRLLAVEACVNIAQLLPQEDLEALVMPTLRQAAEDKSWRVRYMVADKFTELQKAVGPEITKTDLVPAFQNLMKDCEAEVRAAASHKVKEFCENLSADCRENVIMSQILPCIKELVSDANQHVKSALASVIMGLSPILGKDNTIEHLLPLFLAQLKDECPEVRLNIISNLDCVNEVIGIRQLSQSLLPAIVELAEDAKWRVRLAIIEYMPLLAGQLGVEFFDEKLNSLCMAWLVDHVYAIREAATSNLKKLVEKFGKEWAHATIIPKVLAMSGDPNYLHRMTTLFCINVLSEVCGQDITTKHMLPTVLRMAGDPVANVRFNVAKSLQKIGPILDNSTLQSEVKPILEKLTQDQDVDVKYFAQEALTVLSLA
UniProt P35998: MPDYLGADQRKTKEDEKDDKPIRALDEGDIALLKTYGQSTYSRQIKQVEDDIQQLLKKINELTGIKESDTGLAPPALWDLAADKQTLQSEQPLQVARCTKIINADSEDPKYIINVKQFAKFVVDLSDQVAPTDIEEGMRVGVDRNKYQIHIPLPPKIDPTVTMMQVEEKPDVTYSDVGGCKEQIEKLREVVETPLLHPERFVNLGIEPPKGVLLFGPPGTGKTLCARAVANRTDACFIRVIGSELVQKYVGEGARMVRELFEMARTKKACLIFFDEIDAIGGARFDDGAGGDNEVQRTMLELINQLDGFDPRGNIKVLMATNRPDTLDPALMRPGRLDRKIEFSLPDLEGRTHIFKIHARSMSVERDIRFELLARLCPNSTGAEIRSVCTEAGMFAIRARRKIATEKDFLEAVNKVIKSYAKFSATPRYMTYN
UniProt P43243: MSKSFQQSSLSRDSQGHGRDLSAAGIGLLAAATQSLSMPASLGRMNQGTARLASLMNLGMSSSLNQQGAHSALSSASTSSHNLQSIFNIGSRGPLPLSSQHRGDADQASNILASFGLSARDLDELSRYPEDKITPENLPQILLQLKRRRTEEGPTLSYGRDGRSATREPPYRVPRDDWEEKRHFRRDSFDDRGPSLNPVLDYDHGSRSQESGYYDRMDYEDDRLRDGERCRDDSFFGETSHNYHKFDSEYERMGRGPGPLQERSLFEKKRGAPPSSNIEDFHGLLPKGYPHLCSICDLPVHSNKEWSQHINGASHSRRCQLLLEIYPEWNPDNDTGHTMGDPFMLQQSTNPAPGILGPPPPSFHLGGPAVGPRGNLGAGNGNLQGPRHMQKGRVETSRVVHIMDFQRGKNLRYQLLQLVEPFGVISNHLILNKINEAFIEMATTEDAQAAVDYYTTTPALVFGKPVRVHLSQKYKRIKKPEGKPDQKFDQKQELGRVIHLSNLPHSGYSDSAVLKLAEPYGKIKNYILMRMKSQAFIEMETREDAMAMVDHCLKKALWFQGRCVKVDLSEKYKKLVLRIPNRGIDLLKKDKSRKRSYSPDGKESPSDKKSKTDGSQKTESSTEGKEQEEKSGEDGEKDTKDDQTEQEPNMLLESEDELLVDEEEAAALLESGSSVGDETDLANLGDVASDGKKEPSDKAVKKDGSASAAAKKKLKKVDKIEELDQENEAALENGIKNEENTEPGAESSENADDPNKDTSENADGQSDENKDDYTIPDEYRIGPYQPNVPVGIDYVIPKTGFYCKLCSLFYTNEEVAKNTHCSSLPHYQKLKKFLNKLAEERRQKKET

Target	log2 ratio of iodoacetamide-alkyne labeling
UniProt P42285_C650	inactive: 0.182
KIF5B C174 (UniProt P33176)	inactive: 0.165
P41778 C172 (UniProt P40424)	inactive: -0.00628
LONP1 C704 (UniProt P36776)	inactive: -0.000574
RFC1 C607 (UniProt P35251)	inactive: 0.672
RPL4 C250 (UniProt P36578)	inactive: 0.0328
DUT C222 (UniProt P33316)	inactive: 0.016
SDHA C311 (UniProt P31040)	inactive: 0.021
POLR2B C919 (UniProt P30876)	inactive: -0.0368
EIF1 C94 (UniProt P41567)	inactive: 0.115
MDH1 C137 (UniProt P40925)	inactive: 0.0579
ATIC C325 (UniProt P31939)	inactive: -0.00411
CTNNA1 C720 (UniProt P35221)	inactive: 0.223
MDH2 C128 (UniProt P40926)	inactive: -0.335
HSPA4 C290 (UniProt P34932)	inactive: 0.0573
ADD1 C525 (UniProt P35611)	inactive: 0.437
RPL22 C25 (UniProt P35268)	inactive: -0.0696
MYH9 C694 (UniProt P35579)	inactive: 0.476
HNRNPH1 C34 (UniProt P31943)	inactive: -0.171

Single values from the list:
Entry for HSPA4 C290 (UniProt P34932) under log2 ratio of iodoacetamide-alkyne labeling: inactive: 0.0573
Entry for MYH9 C694 (UniProt P35579) under log2 ratio of iodoacetamide-alkyne labeling: inactive: 0.476

Continued:

Target	log2 ratio of iodoacetamide-alkyne labeling
ADSL C27 (UniProt P30566)	inactive: 0.0306
TMPO C330 (UniProt P42166)	inactive: 0.471
MCM4 C162 (UniProt P33991)	inactive: 0.055
RPL3 C114 (UniProt P39023)	inactive: 0.0808
DCTD C83 (UniProt P32321)	inactive: 0.144
RFC2 C88 (UniProt P35250)	inactive: 0.226
PPP2R1A C174 (UniProt P30153)	inactive: 0.169
UniProt P30520_C18	inactive: 0.518
PSMC2 C270 (UniProt P35998)	inactive: 0.0616
ETFB C71 (UniProt P38117)	inactive: 0.579
TMPO C280 (UniProt P42166)	active: 1.09
UniProt P42356_C1774	inactive: 0.189
MATR3 C552 (UniProt P43243)	inactive: 0.21
MCM5 C219 (UniProt P33992)	active: 1.34
RPL9 C74 (UniProt P32969)	inactive: 0.198
CPOX C127 (UniProt P36551)	inactive: 0.347
SDHA C266 (UniProt P31040)	inactive: 0.0962
HNRNPH1 C267 (UniProt P31943)	inactive: 0.211

Source: the supplement of paper PMC11006884
